Primary screen of a compound library

The chains behind the UniProt entries cited, without tags or fusion partners.
UniProt E9BF75, entry or part of it: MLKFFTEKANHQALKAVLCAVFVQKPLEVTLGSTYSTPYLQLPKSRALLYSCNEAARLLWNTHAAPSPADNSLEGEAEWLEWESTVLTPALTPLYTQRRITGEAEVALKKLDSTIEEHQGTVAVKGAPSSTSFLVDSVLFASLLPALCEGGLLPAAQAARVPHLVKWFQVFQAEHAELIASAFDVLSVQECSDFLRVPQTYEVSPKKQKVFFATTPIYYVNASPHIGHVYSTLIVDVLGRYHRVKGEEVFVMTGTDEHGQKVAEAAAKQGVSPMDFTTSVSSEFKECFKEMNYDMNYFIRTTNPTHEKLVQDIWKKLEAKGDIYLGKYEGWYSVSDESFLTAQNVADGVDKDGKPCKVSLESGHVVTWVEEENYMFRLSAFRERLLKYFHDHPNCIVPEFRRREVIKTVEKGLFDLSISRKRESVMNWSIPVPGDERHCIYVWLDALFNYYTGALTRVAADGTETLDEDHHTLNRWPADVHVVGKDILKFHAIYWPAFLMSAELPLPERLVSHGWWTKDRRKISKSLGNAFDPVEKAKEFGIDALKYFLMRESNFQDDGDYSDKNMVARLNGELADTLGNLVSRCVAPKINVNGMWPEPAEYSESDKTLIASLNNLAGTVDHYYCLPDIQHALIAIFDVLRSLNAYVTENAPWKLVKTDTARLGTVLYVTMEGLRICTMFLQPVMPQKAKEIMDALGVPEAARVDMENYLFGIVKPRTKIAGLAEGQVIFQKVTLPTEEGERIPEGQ

Source: ChEMBL document CHEMBL3988442, “University of Dundee, Small-Polar-MMV Screening Library” (2021).

All values are in %. The record does not define 0% and 100%; most values in the screen are far below 50% and negative numbers occur (in some assays of this library far below -100). Compounds were drawn at random from those tested, without regard to their results.

Mtb heat-shock: 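Assay on Mycobacterium tuberculosis, filed only as a heat shock assay from Cornell; the read-out is not stated. The concentration is filed as 10 mM, unlikely as a test dose, so the dose is not known. Higher reads as stronger inhibition (inferred: compounds with an IC50 in retests scored well above the rest). About 69,000 compounds were tested under these conditions; 1.4% (about 930) showed 50% or more at least once.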
Mtb growth Cornell: 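Whole-cell assay for inhibitors of Mycobacterium tuberculosis growth, labelled Cornell in the record; the read-out is not stated. The concentration is filed as 10 mM, unlikely as a test dose, so the dose is not known. The record gives no direction; compounds strong in two other growth screens of this library score well above the rest, so higher reads as stronger inhibition. About 53,000 compounds were tested under these conditions; 1.7% (about 900) showed 50% or more at least once.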
LdMetRS: 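Primary screen of methionyl-tRNA synthetase; the read-out is not stated. Target: Methionyl-tRNA synthetase (putative), Leishmania donovani (UniProt E9BF75). The test concentration is not given. Values are per cent inhibition. About 68,000 compounds were tested under these conditions; 0.035% (about 24) showed 50% or more at least once.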

Result for CC(C)c1n[nH]c(C2CN(CCCS(C)(=O)=O)CCO2)n1 (stereo not given) was Mtb heat-shock: 10.33%; Mtb growth Cornell: -22.45%; LdMetRS: 19.2%. Result for CN1[C@H]2CC[C@@H]1CN(C(=O)c1nnc3n1CCCC3)CC2 was LdMetRS: 0.6873%. O=C(c1cscn1)N1CCC2(CN(Cc3ccoc3)C2)C1 gave LdMetRS: 15.62%. Cc1cc(O)n(-c2ccccc2Cl)c(=O)c1C#N read Mtb heat-shock: -0.3339%; LdMetRS: 11.6%. Result for O=C(O)C(F)(F)F.[H][C@@]12CCN(C3CCC3)C[C@]1(C(=O)N1CCOCC1)CCO2 was Mtb heat-shock: -20.04%; Mtb growth Cornell: -8.38%. Cc1ccccc1C(NC(=O)NCC1(O)CCC1)C1CC1 (stereo not given) read Mtb heat-shock: -22.64%; LdMetRS: 11.02%. For c1cc(CN2CCCCC2)cc(NCc2cc[nH]n2)c1 the result was Mtb heat-shock: -20.7%; LdMetRS: 0.8287%. With Cn1cc(CCC(=O)N2C[C@@H]3CC[C@H](C2)N(Cc2ccccn2)C3)cn1 the screen gave LdMetRS: 9.254%.

CC(NC(=O)Nc1cccnc1N1CCOCC1)c1ccccc1 (stereo not given) read Mtb heat-shock: -23.08%; Mtb growth Cornell: -4.518%; LdMetRS: 5.645%. CN1CCN(c2nsc(-c3ccccc3)c2C#N)CC1 gave Mtb heat-shock: 4.238%; Mtb growth Cornell: 72.37%; LdMetRS: -15.14%. CC(C1CCN(Cc2cnn(C)c2C2CC2)CC1)N(C)C (stereo not given) read Mtb heat-shock: 1.822%; Mtb growth Cornell: 24.13%; LdMetRS: 16.67%. With Cc1cc2nc(C(C)C)cc(N[C@H](C(N)=O)C(C)C)n2n1 the screen gave Mtb heat-shock: -30.53%; Mtb growth Cornell: -18.5%; LdMetRS: 3.922%. Result for Cc1ncsc1C(=O)NC1CCN(Cc2ccc(C(F)(F)F)cc2)CC1 was Mtb heat-shock: -22.35%; LdMetRS: 3.614%. Cc1cc2n(n1)CC(CNCc1ccc(-n3cccn3)nc1)CN2 (stereo not given) gave Mtb heat-shock: 1.771%; LdMetRS: 13.27%. O=C(CCC(F)(F)F)N1CCN(Cc2ccncc2)[C@@H]2CS(=O)(=O)C[C@@H]21 read LdMetRS: 3.364%. CCOc1ccc(NC(=O)NCc2cccnc2OCC)cc1 read Mtb heat-shock: 5.637%; LdMetRS: 21.59%.

COCCCn1ccc(NC(=O)NCCCNc2ccccc2)n1 read Mtb heat-shock: -10.78%; Mtb growth Cornell: 11.99%; LdMetRS: 3.308%. For CCc1nc2c(N3CCC4(CC3)CNC(=O)C4)ncnc2o1 the result was Mtb heat-shock: -8.514%; LdMetRS: 13.92%.